# PubChem BioAssay AID686937, Drosophila RNAi Screening Center – 2013
# Assay: 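Knock-downs that reduce output of a secreted reporter enzyme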 (primary screen)
# System: Drosophila S2 cells expressing secreted horseradish peroxidase
# Knock-down reagent: long dsRNA against Drosophila genes
# Time to read-out: about 5.5 days (5 days dsRNA, then 12 h reporter induction)
# Treatment: reporter expression induced after 5 days of dsRNA, read 12 h later; inducer not stated
# Detection: 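Chemiluminescent measurement of peroxidase in the medium 12 h after reporter induction, following 5 days of dsRNA, given as a z-score per plate; higher means more secretion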
# Direction: z-score: higher = more reporter secreted into medium
# In all, the deposit lists about 23,000 reagents; below is a random part of those with a known target gene and a result. 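Reduced-secretion tags in replicate 1 do not always agree with the z-scores; no criterion for assigning the tags was given.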 The numbers tell different reagents against one gene apart. Reagent sequences are not shown. The record does not give: the amount of reagent.
predicted target,reagent no.,"z-score, replicate 1","z-score, replicate 2","z-score, replicate 3","z-score, replicate 4"
CG13033,1,0.5,0.39,,
CG1889,1,0.32,0.53,,
CR40441 (pseudo),1,-0.64,0.16,,
CG14664,1,0.39,0.24,,
CG7251,1,0.22,0.39,,
dachs,1,0.63,0.58,0.33,-0.03
dachs,2,0.33,0.36,,
dachs,3,0.37,0.3,,
seq (sequoia),1,-0.04,0,,
Cpsf100 (Cleavage and polyadenylation specificity factor 100),1,-1.49,-0.89,,
DIP-zeta (Dpr-interacting protein zeta),1,0.39,0.14,,
DIP-zeta (Dpr-interacting protein zeta),2,0.26,0.36,0.69,0.82
DIP-zeta (Dpr-interacting protein zeta),3,0.11,-0.05,,
pyx (pyrexia),1,0.32,0.31,,
pyx (pyrexia),2,-0.75,-0.46,,
Cep89 (Centrosomal protein 89kDa),1,0.32,0.13,,
Cyp316a1 (Cytochrome P450 316a1),1,0.21,0.21,,
CG15731,1,0.1,0.09,,
CG15731,2,0.18,0.2,,
CG3224,1,0.11,0.15,,
RhoGAP68F (Rho GTPase activating protein at 68F),1,0.38,0.5,,
Usp14 (Ubiquitin specific protease 14),1,0.37,0.37,,
CG31693,1,-0.04,0.44,,
CG3124,1,-0.7,-0.62,,
CG8329,1,0.24,0.22,,
Ir7b (Ionotropic receptor 7b),1,-0.06,-0.98,,
CG42712 (retired record),1,0.04,0.37,,
Pde1c (Phosphodiesterase 1c),1,0.32,0.34,,
Pde1c (Phosphodiesterase 1c),2,0.16,0.21,,
Pde1c (Phosphodiesterase 1c),3,0.63,0.49,,
Pde1c (Phosphodiesterase 1c),4,0.49,0.5,,
Pde1c (Phosphodiesterase 1c),5,0.6,0.42,,
Pde1c (Phosphodiesterase 1c),6,0.81,0.33,,

Just “z-score, replicate 2” (3 entries from above):
DIP-zeta (Dpr-interacting protein zeta) #3	-0.05
pyx (pyrexia) #1	0.31
pyx (pyrexia) #2	-0.46
